Values quoted from earlier work as cited in patent US20090233914A1, “Composition for treatment of nail infections” (Ondine International, Ltd., priority 2008, published 2009).
At least one structure is not confirmed: it was looked up by name or label, or the drawing left a doubt.

Tested on: onychomycosis
Settings: oral, twice a day for one week each month over three to four months

In the case of `CCC(C)n1ncn(-c2ccc(N3CCN(c4ccc(OCC5COC(Cn6cncn6)(c6ccc(Cl)cc6Cl)O5)cc4)CC3)cc2)c1=O` (stereo not shown) [itraconazole], the remission is given as 60-80%.
